Results as given in article PMC6155126.

By UniProt entry, the sequences of proteins in these tests, tags left out.
UniProt Q9BUH6: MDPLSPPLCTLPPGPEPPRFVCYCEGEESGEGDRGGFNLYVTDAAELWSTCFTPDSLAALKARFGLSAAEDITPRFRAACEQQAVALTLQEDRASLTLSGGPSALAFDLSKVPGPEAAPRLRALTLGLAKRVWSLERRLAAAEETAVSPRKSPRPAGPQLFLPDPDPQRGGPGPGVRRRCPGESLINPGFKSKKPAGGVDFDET

Legend:
FLAG-PAXX (human) = FLAG-PAXX (human) (UniProt Q9BUH6); assay: affinity purification with mass spectrometry; anti-FLAG IP of FLAG-PAXX, -XLF, -XRCC4, -DNA-PKcs (stable) or FLAG-Pol λ (transient) from nucleoplasmic and benzonase-treated soluble chromatin fractions of HEK293F cells; FLAG peptide elution; LC-MS/MS
FLAG-Pol λ-WT (human) = FLAG-Pol λ-WT (human) (UniProt Q9UGP5); assay: as above

Substance | binding (FLAG-PAXX (human)) | binding (FLAG-Pol λ-WT (human))
DNA polymerase λ (endogenous) (from UniProt Q9UGP5 1-575) (enzyme) | binds | 
PAXX (endogenous) (from UniProt Q9BUH6 1-204) |  | binds

These are yes or no findings as the source states them, for the method shown. In cells and extracts the contact can be indirect. A yes stands for co-enrichment or nearness to the bait. Other partners may have been found. For some assays here: Where a sequence is shown, tags or fusion partners need not be part of it.
